Test results reported in publication doi:10.1101/2021.11.19.469212.
Results are given in words; binding and its absence hold for the method and conditions named. Binding seen in cells or lysates may run through a third protein. A yes stands for co-enrichment or nearness to the bait. Other partners may have been found. For some assays here: Tags and fused reporters may be left off the sequences shown. Values belong to the binder of their own block, whether it stands above or below them.

Protein sequences, listed by entry. Tags and fused reporters are not part of them.
UniProt Q96CW1: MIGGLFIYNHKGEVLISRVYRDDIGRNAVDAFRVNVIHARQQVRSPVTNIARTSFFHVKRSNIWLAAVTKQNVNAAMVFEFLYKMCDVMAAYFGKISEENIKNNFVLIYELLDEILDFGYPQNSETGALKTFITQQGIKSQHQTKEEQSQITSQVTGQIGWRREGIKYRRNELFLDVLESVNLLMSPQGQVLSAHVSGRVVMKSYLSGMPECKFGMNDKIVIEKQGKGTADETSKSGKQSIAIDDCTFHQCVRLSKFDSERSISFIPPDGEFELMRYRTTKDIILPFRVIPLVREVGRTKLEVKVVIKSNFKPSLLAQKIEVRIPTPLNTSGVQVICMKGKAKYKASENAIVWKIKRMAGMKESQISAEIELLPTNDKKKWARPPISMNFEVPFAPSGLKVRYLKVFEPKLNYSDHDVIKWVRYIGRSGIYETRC

Assays:
Assay in all cases: proximity labelling
[1] = biological target: T1, AP4μ^EN-TurboID-V5 (human (endogenous in HeLa)) (UniProt O00189)
T1 sequence: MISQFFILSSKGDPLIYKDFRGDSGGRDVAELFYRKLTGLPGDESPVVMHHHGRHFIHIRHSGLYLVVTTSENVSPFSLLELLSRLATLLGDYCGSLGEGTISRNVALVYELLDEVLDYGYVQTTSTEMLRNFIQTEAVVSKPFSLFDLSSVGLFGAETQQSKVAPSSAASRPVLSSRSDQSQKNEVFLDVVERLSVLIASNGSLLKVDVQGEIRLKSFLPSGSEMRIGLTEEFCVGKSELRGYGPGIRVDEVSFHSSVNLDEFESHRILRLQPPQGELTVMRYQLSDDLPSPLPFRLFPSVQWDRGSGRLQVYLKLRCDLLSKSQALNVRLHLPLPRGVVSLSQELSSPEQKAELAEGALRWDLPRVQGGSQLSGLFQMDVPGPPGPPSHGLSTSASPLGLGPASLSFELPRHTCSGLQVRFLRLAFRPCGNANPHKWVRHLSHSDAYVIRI

[2] = biological target: T2, AP4μ^EN-TurboID-V5 (human (endogenous in HeLa)), O00189; conditions: remark: other sources report otherwise
T2 chain: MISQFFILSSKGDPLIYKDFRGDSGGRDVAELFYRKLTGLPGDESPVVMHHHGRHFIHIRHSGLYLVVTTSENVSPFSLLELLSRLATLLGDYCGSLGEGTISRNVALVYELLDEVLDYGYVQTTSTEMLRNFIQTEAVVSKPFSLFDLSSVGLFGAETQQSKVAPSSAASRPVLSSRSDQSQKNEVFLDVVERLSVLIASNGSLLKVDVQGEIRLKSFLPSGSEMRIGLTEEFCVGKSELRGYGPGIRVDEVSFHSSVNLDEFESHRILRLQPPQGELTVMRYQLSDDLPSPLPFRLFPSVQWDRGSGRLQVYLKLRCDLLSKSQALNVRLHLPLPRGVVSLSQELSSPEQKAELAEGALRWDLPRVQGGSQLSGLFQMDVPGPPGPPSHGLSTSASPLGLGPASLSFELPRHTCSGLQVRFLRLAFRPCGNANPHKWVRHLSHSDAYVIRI

[3] = biological target: T3, V5-TurboID-CLCa^EN (human (endogenous in HeLa)) (UniProt P09496)
T3 sequence: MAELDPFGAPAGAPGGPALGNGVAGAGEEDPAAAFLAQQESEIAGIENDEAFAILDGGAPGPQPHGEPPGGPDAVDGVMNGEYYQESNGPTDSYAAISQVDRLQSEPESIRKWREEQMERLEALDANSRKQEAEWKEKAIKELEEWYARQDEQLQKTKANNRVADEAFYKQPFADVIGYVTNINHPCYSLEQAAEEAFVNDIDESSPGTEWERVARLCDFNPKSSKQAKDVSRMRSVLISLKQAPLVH

[4] = biological target: AP2μ^EN-TurboID-V5 (human (endogenous in HeLa)) (UniProt Q96CW1)

binding [1]: binds
B1: ATG9A (protein, UniProt Q7Z3C6 1-839)
chain: MAQFDTEYQRLEASYSDSPPGEEDLLVHVAEGSKSPWHHIENLDLFFSRVYNLHQKNGFTCMLIGEIFELMQFLFVVAFTTFLVSCVDYDILFANKMVNHSLHPTEPVKVTLPDAFLPAQVCSARIQENGSLITILVIAGVFWIHRLIKFIYNICCYWEIHSFYLHALRIPMSALPYCTWQEVQARIVQTQKEHQICIHKRELTELDIYHRILRFQNYMVALVNKSLLPLRFRLPGLGEAVFFTRGLKYNFELILFWGPGSLFLNEWSLKAEYKRGGQRLELAQRLSNRILWIGIANFLLCPLILIWQILYAFFSYAEVLKREPGALGARCWSLYGRCYLRHFNELEHELQSRLNRGYKPASKYMNCFLSPLLTLLAKNGAFFAGSILAVLIALTIYDEDVLAVEHVLTTVTLLGVTVTVCRSFIPDQHMVFCPEQLLRVILAHIHYMPDHWQGNAHRSQTRDEFAQLFQYKAVFILEELLSPIVTPLILIFCLRPRALEIIDFFRNFTVEVVGVGDTCSFAQMDVRQHGHPQWLSAGQTEASVYQQAEDGKTELSLMHFAITNPGWQPPRESTAFLGFLKEQVQRDGAAASLAQGGLLPENALFTSIQSLQSESEPLSLIANVVAGSSCRGPPLPRDLQGSRHRAEVASALRSFSPLQPGQAPTGRAHSTMTGSGVDARTASSGSSVWEGQLQSLVLSEYASTEMSLHALYMHQLHKQQAQAEPERHVWHRRESDESGESAPDEGGEGARAPQSIPRSASYPCAAPRPGAPETTALHGGFQRRYGGITDPGTVPRVPSHFSRLPLGGWAEDGQSASRHPEPVPEEGSEDELPPQVHKV

binding [1]: binds
B2: Tepsin (ENTDH2) (protein, UniProt Q96N21 1-525)
chain: MAAAPPLRDRLSFLHRLPILLKGTSDDDVPCPGYLFEEIAKISHESPGSSQCLLEYLLSRLHSSSGHGKLKVLKILLYLCSHGSSFFLLILKRNSAFIQEAAAFAGPPDPLHGNSLYQKVRAAAQDLGSTLFSDTVLPLAPSQPLGTPPATGMGSQARPHSTLQGFGYSKEHGRTAVRHQPGQAGGGWDELDSGPSSQNSSQNSDLSRVSDSGSHSGSDSHSGASREPGDLAERVEVVALSDCQQELSLVRTVTRGPRAFLSREEAQHFIKACGLLNCEAVLQLLTCHLRGTSECTQLRALCAIASLGSSDLLPQEHILLRTRPWLQELSMGSPGPVTNKATKILRHFEASCGQLSPARGTSAEPGPTAALPGPSDLLTDAVPLPGSQVFLQPLSSTPVSSRSPAPSSGMPSSPVPTPPPDASPIPAPGDPSEAEARLAESRRWRPERIPGGTDSPKRGPSSCAWSRDSLFAGMELVACPRLVGAGAAAGESCPDAPRAPQTSSQRTAAKEPPGSEPSAFAFLNA

binding [2]: binds
B3: FHF complex subunit (FAM160A1), Q05DH4 1-1040 (protein)
chain: MMSSVSTESKLQQAVSLQGVDPETCMIVFKNHWAQVVKILEKHDPLKNTQAKYGSIPPDEASAVQNYVEHMLFLLIEEQAKDAAMGPILEFVVSENIMEKLFLWSLRREFTDETKIEQLKMYEMLVTQSHQPLLHHKPILKPLMMLLSSCSGTTTPTVEEKLVVLLNQLCSILAKDPSILELFFHTSEDQGAANFLIFSLLIPFIHREGSVGQQARDALLFIMSLSAENTMVAHHIVENTYFCPVLATGLSGLYSSLPTKLEEKGEEWHCLLKDDWLLLPSLVQFMNSLEFCNAVIQVAHPLIRNQLVNYIYNGFLVPVLAPALHKVTVEEVMTTTAYLDLFLRSISEPALLEIFLRFILLHQHENVHILDTLTSRINTPFRLCVVSLALFRTLIGLHCEDVMLQLVLRYLIPCNHMMLSQRWAVKERDCYSVSAAKLLALTPVCCSSGITLTLGNQERDYILWSKCMHDTSGPVERPFPEAFSESACIVEYGKALDISYLQYLWEAHTNILRCMRDCRVWSALYDGDSPDPEMFLQSLTEEGSVSSACPVFGLPQQLPRKTGPQLAPRKDKSQTELEWDDSYDTGISSGADVGSPGPYDDLEVSGPPAPIDPPKHIQEMKKNALLLFKGSYIEESDFQDDVMVYRLCAEKDSEDMKDSQEEAARPPAEAQAEVQSVPINNGPLLSTQPETDSEEEWNRDNSDPFHSEPKEPKQEREPEAAPESNSELASPAPEAEHSSNLTAAHPESEELIAQYDQIIKELDSGAEGLMEQNYPTPDPLLLTKEEEGKEESKGEKEKEGKKELEDEEDDFDSFIAEMPAVETVPSPFVGRDEAAFASRHPVRTQSTPFTGPFISVVLSKLENMLENSLHVNLLLIGIITQLASYPQPLLRSFLLNTNMVFQPSVRSLYQVLASVKNKIEQFASVERDFPGLLIQAQQYLLFRVDMSDMTPAALTKDPIQEASRTGSGKNLLDGPPRVLQPFLTHRTKVAEAPPNLPLPVRNPMLAAALFPEFLKELAALAQEHSILCYKILGDFEDSCC

binding [3]: binds | binding [4]: binds
B4: protein numb like (NUMB) (protein, UniProt P49757 1-651)
chain: MNKLRQSFRRKKDVYVPEASRPHQWQTDEEGVRTGKCSFPVKYLGHVEVDESRGMHICEDAVKRLKAERKFFKGFFGKTGKKAVKAVLWVSADGLRVVDEKTKDLIVDQTIEKVSFCAPDRNFDRAFSYICRDGTTRRWICHCFMAVKDTGERLSHAVGCAFAACLERKQKREKECGVTATFDASRTTFTREGSFRVTTATEQAEREEIMKQMQDAKKAETDKIVVGSSVAPGNTAPSPSSPTSPTSDATTSLEMNNPHAIPRRHAPIEQLARQGSFRGFPALSQKMSPFKRQLSLRINELPSTMQRKTDFPIKNAVPEVEGEAESISSLCSQITNAFSTPEDPFSSAPMTKPVTVVAPQSPTFQANGTDSAFHVLAKPAHTALAPVAMPVRETNPWAHAPDAANKEIAATCSGTEWGQSSGAASPGLFQAGHRRTPSEADRWLEEVSKSVRAQQPQASAAPLQPVLQPPPPTAISQPASPFQGNAFLTSQPVPVGVVPALQPAFVPAQSYPVANGMPYPAPNVPVVGITPSQMVANVFGTAGHPQAAHPHQSPSLVRQQTFPHYEASSATTSPFFKPPAQHLNGSAAFNGVDDGRLASADRHTEVPTGTCPVDPFEAQWAALENKSKQRTNPSPTNPFSSDLQKTFEIEL
